From article PMC4890047 come the findings set out here.

By UniProt entry, the sequences of proteins in these tests, tags left out.
UniProt Q8B6J8: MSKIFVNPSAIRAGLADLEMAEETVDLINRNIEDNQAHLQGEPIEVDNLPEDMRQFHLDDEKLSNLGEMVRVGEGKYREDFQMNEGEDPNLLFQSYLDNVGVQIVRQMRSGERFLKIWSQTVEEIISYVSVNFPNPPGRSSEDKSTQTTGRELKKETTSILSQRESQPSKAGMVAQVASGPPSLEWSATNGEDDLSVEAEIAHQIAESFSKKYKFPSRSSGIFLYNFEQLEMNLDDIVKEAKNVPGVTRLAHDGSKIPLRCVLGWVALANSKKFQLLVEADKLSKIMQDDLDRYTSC

Results are given in words; binding and its absence hold for the method and conditions named. In cells and extracts the contact can be indirect. Some results given as binding are weak or reduced against the parent protein; the word gives no strength. Where a sequence is shown, tags or fusion partners need not be part of it.

The experiment concerns the target T1, Flag-Cdc37 (WT) (mouse) (UniProt Q61081).
T1 sequence: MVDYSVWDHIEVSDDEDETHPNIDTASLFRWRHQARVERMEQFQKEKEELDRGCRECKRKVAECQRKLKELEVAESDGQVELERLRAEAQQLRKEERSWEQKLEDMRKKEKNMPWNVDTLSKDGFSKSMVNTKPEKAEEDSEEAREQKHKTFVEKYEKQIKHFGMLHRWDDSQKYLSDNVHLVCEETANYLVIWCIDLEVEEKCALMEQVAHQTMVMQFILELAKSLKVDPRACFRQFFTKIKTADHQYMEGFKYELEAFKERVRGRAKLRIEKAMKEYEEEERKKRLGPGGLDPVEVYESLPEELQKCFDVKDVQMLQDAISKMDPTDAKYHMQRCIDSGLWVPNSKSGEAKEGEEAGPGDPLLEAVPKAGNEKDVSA
The experiment can be described thus: co-IP.

For the substance Myc-P (from UniProt Q8B6J8 1-297), the binding result was “binds”.
